Test results taken from paper PMC6123365, “Pharmacokinetics of Nuciferine and N-Nornuciferine, Two Major Alkaloids From Nelumbo nucifera Leaves, in Rat Plasma and the Brain” (Frontiers in Pharmacology, 2018).

Experiment: In vitro recovery from the microdialysis probe with different perfusion fluids
Conditions: 2 μL/min
[1] = perfusion fluid aCSF containing 5 mM β-CD, 500 ng/mL
[2] = perfusion fluid aCSF containing 0.2% albumin, 500 ng/mL
[3] = perfusion fluid aCSF, 500 ng/mL standard solution

## COc1cc2c3c(c1OC)-c1ccccc1C[C@H]3N(C)CC2 [NF, nuciferine]
[1]
  Recovery from the microdialysis probe: 20.29%
[2]
  Recovery from the microdialysis probe: 14.37%
[3]
  Recovery from the microdialysis probe: 15.81%

## COc1cc2c3c(c1OC)-c1ccccc1CC3NCC2 (stereo not drawn) [N-NF, N-nornuciferine]
[1]
  Recovery from the microdialysis probe: 15.82%
[2]
  Recovery from the microdialysis probe: 11.61%
[3]
  Recovery from the microdialysis probe: 14.93%
